Experimental data published in the supplement of paper PMC12823440, “Inhibitors supercharge kinase turnover through native proteolytic circuits” (Nature, 2025).
Where a name gives a salt, the structure may show the parent alone. This is one part of the list. Hit calls seldom repeat between salt and free forms of one compound.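 In K562 cells expressing nanoluciferase-fused kinases, luminescence was recorded at 4 h intervals between 2 and 18 h, normalized as percent of control with DMSO at 100% and a positive control at 0%. A significant (2 sigma) signal drop marks a time point as decreased. The authors' rule for a hit is not shown and takes in more than the number of time points.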

Protein sequences, listed by entry. Tags and fused reporters are not part of them. Lines headed by an entry give the natural chain unless they say otherwise; changes in a name come on top.
UniProt Q05397, whole entry, looked up: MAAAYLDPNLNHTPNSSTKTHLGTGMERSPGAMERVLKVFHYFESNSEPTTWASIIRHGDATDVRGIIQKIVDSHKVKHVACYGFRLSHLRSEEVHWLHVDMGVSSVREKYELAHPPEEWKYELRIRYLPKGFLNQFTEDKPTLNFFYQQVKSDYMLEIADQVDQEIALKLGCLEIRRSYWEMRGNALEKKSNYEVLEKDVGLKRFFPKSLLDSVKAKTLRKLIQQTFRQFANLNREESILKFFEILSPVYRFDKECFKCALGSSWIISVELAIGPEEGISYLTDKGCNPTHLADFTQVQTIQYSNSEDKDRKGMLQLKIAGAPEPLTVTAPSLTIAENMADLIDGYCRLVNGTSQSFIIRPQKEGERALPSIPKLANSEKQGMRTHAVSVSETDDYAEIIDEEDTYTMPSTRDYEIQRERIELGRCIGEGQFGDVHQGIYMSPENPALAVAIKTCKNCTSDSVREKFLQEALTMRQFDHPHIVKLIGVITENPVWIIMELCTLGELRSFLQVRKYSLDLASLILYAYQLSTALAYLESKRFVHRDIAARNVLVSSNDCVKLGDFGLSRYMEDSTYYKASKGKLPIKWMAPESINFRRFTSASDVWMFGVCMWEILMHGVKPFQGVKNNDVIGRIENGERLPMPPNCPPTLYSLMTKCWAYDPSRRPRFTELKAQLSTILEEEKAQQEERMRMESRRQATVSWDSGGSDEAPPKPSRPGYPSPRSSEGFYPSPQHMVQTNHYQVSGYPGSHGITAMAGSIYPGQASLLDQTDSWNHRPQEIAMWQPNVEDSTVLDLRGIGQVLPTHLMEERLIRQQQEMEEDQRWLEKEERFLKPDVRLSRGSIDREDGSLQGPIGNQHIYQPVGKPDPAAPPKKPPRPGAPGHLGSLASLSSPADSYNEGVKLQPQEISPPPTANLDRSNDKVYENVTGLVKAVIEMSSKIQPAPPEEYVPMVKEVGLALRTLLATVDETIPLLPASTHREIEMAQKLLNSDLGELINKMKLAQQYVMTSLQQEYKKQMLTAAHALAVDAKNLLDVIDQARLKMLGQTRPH
UniProt Q14289, whole entry, looked up: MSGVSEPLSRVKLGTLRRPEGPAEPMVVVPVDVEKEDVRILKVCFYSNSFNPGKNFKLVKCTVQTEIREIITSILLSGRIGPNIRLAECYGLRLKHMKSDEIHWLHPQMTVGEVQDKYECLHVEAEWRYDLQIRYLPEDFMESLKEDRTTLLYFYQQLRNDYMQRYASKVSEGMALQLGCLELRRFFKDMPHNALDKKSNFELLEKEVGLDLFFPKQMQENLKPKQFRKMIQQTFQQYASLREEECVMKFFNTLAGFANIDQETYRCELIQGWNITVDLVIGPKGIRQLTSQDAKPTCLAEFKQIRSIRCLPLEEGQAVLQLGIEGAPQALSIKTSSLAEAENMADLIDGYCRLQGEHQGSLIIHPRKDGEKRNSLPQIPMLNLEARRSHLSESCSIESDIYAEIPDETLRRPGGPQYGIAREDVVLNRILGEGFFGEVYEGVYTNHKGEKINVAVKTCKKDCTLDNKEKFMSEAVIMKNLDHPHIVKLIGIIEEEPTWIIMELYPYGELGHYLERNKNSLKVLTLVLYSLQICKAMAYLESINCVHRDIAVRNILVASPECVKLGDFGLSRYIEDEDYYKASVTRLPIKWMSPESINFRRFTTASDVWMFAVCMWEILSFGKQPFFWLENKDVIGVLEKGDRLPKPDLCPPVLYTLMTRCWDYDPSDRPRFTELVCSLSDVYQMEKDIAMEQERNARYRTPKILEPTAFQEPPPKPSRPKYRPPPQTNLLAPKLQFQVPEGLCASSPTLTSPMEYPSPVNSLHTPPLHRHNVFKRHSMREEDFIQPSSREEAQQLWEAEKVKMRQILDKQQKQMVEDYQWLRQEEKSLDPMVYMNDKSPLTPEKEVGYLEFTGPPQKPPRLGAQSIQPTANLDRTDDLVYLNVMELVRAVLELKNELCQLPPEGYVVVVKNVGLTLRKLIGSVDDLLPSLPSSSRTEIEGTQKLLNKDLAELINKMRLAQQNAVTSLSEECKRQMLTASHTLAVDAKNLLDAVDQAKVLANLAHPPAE
UniProt P07949, whole entry, looked up: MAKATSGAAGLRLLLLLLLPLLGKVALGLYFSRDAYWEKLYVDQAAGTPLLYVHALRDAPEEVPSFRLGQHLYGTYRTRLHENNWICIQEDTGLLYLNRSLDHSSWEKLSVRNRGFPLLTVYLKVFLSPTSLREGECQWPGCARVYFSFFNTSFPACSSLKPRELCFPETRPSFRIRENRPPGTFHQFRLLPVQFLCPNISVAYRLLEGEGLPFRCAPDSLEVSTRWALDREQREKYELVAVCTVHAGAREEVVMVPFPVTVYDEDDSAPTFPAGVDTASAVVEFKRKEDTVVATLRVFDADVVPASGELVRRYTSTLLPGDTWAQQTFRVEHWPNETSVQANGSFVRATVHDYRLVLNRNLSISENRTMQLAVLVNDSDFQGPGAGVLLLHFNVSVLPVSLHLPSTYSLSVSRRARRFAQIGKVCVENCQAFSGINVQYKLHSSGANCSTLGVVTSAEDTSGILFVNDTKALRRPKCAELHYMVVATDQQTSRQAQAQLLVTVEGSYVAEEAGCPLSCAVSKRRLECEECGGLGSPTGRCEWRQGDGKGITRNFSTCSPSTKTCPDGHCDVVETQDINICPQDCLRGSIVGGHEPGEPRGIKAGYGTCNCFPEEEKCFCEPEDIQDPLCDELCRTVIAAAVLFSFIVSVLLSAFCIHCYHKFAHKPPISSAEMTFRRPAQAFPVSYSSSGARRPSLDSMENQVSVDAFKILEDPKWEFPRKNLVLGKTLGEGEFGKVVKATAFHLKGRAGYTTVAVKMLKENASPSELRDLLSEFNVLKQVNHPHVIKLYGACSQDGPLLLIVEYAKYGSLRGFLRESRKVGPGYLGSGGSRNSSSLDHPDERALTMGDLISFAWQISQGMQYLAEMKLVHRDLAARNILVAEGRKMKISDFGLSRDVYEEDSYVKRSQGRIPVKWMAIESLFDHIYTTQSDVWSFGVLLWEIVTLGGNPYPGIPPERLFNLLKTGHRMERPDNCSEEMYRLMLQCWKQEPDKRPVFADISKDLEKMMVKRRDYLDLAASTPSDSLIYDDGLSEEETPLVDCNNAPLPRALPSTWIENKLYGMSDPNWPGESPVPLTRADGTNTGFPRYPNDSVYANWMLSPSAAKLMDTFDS
UniProt P07949, whole entry M918T, looked up: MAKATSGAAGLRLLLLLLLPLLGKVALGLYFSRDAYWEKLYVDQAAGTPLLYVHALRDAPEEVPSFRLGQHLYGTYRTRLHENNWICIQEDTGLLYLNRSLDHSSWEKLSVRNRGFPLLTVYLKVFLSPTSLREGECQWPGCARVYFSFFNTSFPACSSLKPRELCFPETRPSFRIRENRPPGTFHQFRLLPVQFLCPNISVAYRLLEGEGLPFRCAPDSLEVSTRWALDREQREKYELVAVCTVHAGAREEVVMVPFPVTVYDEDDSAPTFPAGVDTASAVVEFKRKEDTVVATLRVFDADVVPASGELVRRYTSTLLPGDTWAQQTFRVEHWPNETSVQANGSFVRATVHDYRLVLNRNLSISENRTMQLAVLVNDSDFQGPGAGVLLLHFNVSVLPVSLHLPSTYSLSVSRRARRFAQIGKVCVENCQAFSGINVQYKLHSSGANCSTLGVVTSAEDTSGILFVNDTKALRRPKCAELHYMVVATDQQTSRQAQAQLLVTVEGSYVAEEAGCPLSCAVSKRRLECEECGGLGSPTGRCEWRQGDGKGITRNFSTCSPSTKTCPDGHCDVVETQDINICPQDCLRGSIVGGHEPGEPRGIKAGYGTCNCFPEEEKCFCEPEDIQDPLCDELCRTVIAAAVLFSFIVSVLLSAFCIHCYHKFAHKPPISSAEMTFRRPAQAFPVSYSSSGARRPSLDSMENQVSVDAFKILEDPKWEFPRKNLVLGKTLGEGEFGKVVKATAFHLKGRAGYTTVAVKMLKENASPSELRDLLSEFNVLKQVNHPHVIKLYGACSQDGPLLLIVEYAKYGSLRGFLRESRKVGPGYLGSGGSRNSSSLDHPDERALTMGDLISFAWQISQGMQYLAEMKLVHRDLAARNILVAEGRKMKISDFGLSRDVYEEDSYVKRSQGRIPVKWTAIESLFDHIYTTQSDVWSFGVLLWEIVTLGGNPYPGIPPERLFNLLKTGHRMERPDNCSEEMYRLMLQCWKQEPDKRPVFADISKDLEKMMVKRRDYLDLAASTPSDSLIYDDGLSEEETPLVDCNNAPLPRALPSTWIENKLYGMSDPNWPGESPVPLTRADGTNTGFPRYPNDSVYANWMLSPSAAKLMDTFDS
UniProt Q9BRS2: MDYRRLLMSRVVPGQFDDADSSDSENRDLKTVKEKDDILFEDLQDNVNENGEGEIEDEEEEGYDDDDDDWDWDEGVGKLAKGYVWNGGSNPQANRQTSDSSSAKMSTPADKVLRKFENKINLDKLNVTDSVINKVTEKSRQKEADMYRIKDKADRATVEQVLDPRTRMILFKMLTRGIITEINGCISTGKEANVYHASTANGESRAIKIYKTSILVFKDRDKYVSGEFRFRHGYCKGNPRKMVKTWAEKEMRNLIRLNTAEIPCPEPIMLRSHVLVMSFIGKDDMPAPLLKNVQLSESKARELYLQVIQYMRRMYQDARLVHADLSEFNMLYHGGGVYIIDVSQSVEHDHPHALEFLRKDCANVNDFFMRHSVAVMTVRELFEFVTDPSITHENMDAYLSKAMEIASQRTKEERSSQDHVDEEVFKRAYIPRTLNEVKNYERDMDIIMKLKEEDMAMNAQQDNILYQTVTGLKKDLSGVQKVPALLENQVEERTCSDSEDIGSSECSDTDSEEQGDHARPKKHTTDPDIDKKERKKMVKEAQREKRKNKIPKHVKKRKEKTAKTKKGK
UniProt Q13546: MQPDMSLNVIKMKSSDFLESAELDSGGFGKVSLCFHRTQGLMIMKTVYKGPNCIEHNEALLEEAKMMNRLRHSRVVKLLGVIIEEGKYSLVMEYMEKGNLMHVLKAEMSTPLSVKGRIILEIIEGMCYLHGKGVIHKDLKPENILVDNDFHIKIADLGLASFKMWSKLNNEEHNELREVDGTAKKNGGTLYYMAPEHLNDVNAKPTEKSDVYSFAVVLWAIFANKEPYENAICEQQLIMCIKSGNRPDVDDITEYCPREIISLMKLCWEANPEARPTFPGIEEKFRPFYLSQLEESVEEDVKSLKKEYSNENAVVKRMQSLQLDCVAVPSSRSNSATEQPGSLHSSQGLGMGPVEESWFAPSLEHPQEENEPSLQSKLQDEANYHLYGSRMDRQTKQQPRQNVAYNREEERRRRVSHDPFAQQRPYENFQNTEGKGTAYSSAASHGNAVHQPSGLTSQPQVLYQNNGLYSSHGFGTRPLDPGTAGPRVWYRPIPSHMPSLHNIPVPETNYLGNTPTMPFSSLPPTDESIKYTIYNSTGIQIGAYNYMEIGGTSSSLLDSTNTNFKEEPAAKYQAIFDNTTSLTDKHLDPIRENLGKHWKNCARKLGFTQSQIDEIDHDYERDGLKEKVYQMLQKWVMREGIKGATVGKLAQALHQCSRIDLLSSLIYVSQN

Legend:
Test in all cases: number of time points (of 5) at which kinase-Nluc abundance scored as decreased, DMSO-normalised (count); higher = more persistent destabilization
Conditions in all cases: K562; 2-18 h
PRKCA = PRKCA (UniProt P17252)
PTK2 = PTK2 (UniProt Q05397)
PTK2B = PTK2B (UniProt Q14289)
RAF1 = RAF1 (UniProt P04049)
[1] = molecular target: RAF1_S257L (clone: RAF1_mut) (UniProt P04049)
RET = RET (UniProt P07949)
[2] = molecular target: RET_M918T (clone: RET_mut) (UniProt P07949)
RIOK1 = RIOK1 (UniProt Q9BRS2)
RIPK1 = RIPK1 (UniProt Q13546)
RIPK2 = RIPK2 (UniProt O43353)

| Structure (SMILES) | number of time points (PRKCA) | number of time points (PTK2) | number of time points (PTK2B) | number of time points (RAF1) | number of time points [1] | number of time points (RET) | number of time points [2] | number of time points (RIOK1) | number of time points (RIPK1) | number of time points (RIPK2) |
| --- | --- | --- | --- | --- | --- | --- | --- | --- | --- | --- |
| CCOC(=O)c1c(Nc2ccccc2Cl)oc(/C=C2\C=Nc3ncccc32)c1O (10 µM) | 0 | 0 | 0 | 0 | 0 | 0 | 0 | 0 | 0 | 0 |
| CCCCNc1ncc2c(-c3ccc(F)cc3)nn(CC3CCC(N)CC3)c2n1 (stereo not given) (2.5 µM) | 0 | 0 | 0 | 0 | 0 | 0 | 0 | 0 | 0 | 0 |
| CC(C)Cn1ncc2cc(Oc3ccc(F)cc3F)c(C(=O)NCCN(C)C)cc21 [p38α inhibitor 1] (10 µM) | 0 | 0 | 0 | 0 | 0 | 0 | 0 | 0 | 0 | 0 |
| Cc1n[nH]c2ncc(C(=O)N3CCC[C@H]3c3ccc(Cl)cc3)cc12 (10 µM) | 0 | 0 | 0 | 0 | 0 | 0 | 0 | 0 | 0 | 0 |
| COc1ccc(CCNCc2ccc(OCc3ccc(Cl)nc3)c(OC)c2)cc1OC [SBE13 (Hydrochloride)] (10 µM) | 0 | 0 | 0 | 0 | 0 | 0 | 0 | 0 | 0 | 0 |
| Cc1ccc(NC(=O)N2CCN(c3nc(N)nc4sc(-c5cccnc5)nc34)CC2)cc1 [PI4KIII beta inhibitor 3] (10 µM) | 0 | 0 | 0 | 0 | 0 | 0 | 0 | 0 | 0 | 0 |
| CN1C(=O)N[C@@H](Cc2c[nH]c3c(Cl)cccc23)C1=O [Necrostatin 2 (S enantiomer)] (10 µM) | 0 | 0 | 0 | 0 | 0 | 0 | 0 | 0 | 0 | 0 |
| CC(C1CC1)n1cnc2c(NCc3cccc(C(F)(F)F)c3)nc(NCCN(C)C)nc21 (stereo not given) (10 µM) | 0 | 0 | 0 | 0 | 0 | 0 | 0 | 0 | 0 | 0 |
| CCn1c(N)c(C(=O)NC)c(=O)c2ccc(C#CC(C)(O)COC)nc21 (stereo not given) (10 µM) | 0 | 0 | 0 | 0 | 0 | 0 | 0 | 0 | 0 | 0 |
| CCNC(=O)Nc1ccc(-c2nc3c(c(N4CCOC[C@@H]4C)n2)CCN(C2COC2)C3)cc1 (2.5 µM) | 0 | 2 | 0 | 0 | 0 | 0 | 0 | 0 | 3 | 0 |
| O=C(O)/C=C(\CCc1ccc(Cl)cc1)c1ccccc1 (10 µM) | 0 | 0 | 0 | 0 | 0 | 0 | 0 | 0 | 0 | 0 |
| CN1CCN(Cc2ccc(-c3cnc4[nH]cc(-c5ccc6[nH]ccc6c5)c4c3)cc2)CC1 (2.5 µM) | 0 | 0 | 0 | 0 | 4 | 0 | 0 | 0 | 0 | 0 |
| CC1(C)C=Cc2c(ccc(C(=O)/C=C/c3ccc(O)cc3)c2O)O1 [4-Hydroxylonchocarpin] (10 µM) | 0 | 0 | 0 | 0 | 0 | 0 | 0 | 0 | 0 | 0 |
| CNc1cc2c(Nc3cccc(Br)c3)ncnc2cn1 (10 µM) | 0 | 0 | 0 | 0 | 0 | 0 | 0 | 0 | 0 | 0 |
| Cc1cnc(Nc2ccc(F)cc2Cl)nc1-c1c[nH]c(C(=O)N[C@H](CO)c2cccc(Cl)c2)c1 (10 µM) | 0 | 0 | 0 | 0 | 0 | 0 | 0 | 0 | 0 | 0 |
| COC(=O)N1CCN(C2CCC(Nc3nc(Nc4cnn(C)c4)nc4ccc(CC#N)nc34)CC2)CC1 (stereo not given) (10 µM) | 0 | 0 | 0 | 2 | 0 | 0 | 0 | 0 | 0 | 0 |
| C[C@@H]1COC(Nc2ccc3ncnc(Nc4ccc(OCc5nccs5)c(Cl)c4)c3c2)=N1 [Varlitinib] (10 µM) | 0 | 5 | 0 | 0 | 0 | 0 | 0 | 0 | 0 | 0 |
| CC(=O)O[C@@H]1[C@@H](OC(C)=O)[C@@H](O)[C@H](Oc2c(-c3ccc(O)cc3)oc3cc(O)cc(O)c3c2=O)O[C@H]1C (10 µM) | 0 | 0 | 0 | 0 | 0 | 0 | 0 | 0 | 0 | 0 |
| Nc1ccc(C(=O)Nc2cccc(-c3nc(N4CCOCC4)c4oc5ncccc5c4n3)c2)cn1 (10 µM) | 0 | 0 | 0 | 0 | 0 | 0 | 0 | 0 | 0 | 0 |

| Structure (SMILES) | number of time points (PRKCA) | number of time points (PTK2) | number of time points (PTK2B) | number of time points (RAF1) | number of time points [1] | number of time points (RET) | number of time points [2] | number of time points (RIOK1) | number of time points (RIPK1) | number of time points (RIPK2) |
| --- | --- | --- | --- | --- | --- | --- | --- | --- | --- | --- |
| CS(=O)(=O)c1ccc([C@@H](CC2CCCC2)C(=O)Nc2nccs2)cc1 (10 µM) | 0 | 0 | 0 | 0 | 0 | 0 | 0 | 0 | 0 | 0 |
| COc1cc(N2CCC(O)CC2)ccc1Nc1nc(Nc2ccccc2S(=O)(=O)C(C)C)c2[nH]cnc2n1 (10 µM) | 0 | 0 | 0 | 0 | 0 | 0 | 0 | 0 | 0 | 0 |
| CO[C@@H]1[C@H](N(C)C(=O)c2ccccc2)C[C@H]2O[C@]1(C)n1c3ccccc3c3c4c(c5c6ccccc6n2c5c31)C(=O)NC4 [Midostaurin] (2.5 µM) | 0 | 0 | 0 | 2 | 0 | 0 | 0 | 0 | 2 | 1 |
| O=S(=O)(c1ccc(O)cc1O)N1Cc2cc(O)cc(O)c2C1 (10 µM) | 0 | 0 | 0 | 0 | 0 | 0 | 0 | 0 | 0 | 0 |
| Nc1nc(Nc2ccc3c(c2)CC[C@@H](N2CCCC2)CC3)nn1-c1cc2c(nn1)-c1ccccc1CCC2 [Bemcentinib] (2.5 µM) | 0 | 0 | 0 | 0 | 0 | 0 | 0 | 0 | 0 | 0 |
| Fc1ccc(-c2nc3n(c2-c2ccncc2)CCS3)cc1 (10 µM) | 0 | 0 | 0 | 0 | 0 | 0 | 0 | 0 | 0 | 0 |
| O=C1C=CC2=C3c4cc(O)c(O)cc4CC3(O)COC2=C1O (stereo not given) [Hematein] (10 µM) | 0 | 0 | 0 | 0 | 0 | 0 | 0 | 0 | 0 | 0 |
| CC(=O)Nc1nc(C)c(-c2cc(C)c3c(c2)CN([C@@H](C)C2CC2)C3=O)s1 (10 µM) | 0 | 0 | 0 | 0 | 0 | 0 | 0 | 0 | 0 | 0 |
| COc1ccc(Br)c(C=O)c1O [6-Bromo-2-hydroxy-3-methoxybenzaldehyde] (10 µM) | 0 | 0 | 0 | 0 | 0 | 0 | 0 | 0 | 0 | 0 |
| O=C1Cc2ccccc2N1 [Oxindole] (10 µM) | 0 | 0 | 0 | 0 | 0 | 0 | 0 | 0 | 0 | 0 |
| COc1cc(Nc2ccnc3ccc(Br)cc23)cc(OC)c1OC (2.5 µM) | 0 | 0 | 0 | 1 | 0 | 0 | 0 | 1 | 0 | 0 |
| CC(=O)O/N=C1/C(c2c(O)[nH]c3cc(Br)ccc23)=Nc2ccccc21 [BIO-acetoxime] (10 µM) | 0 | 0 | 0 | 0 | 0 | 0 | 0 | 0 | 0 | 0 |
| CN(C)c1cc[n+](Cc2ccc(OCCOc3ccc(C[n+]4ccc(N(C)C)cc4)cc3)cc2)cc1 (10 µM) | 0 | 0 | 0 | 0 | 0 | 0 | 0 | 0 | 0 | 0 |
| O=C(O)c1c[nH]c2cc(Cl)c(-c3ccc(C4(O)CCC4)cc3)cc12 (10 µM) | 0 | 0 | 0 | 0 | 0 | 0 | 0 | 0 | 0 | 0 |
| CN1CCC(Nc2ccc(C(=O)Nc3cc(-c4ccc5c(c4)OCO5)[nH]n3)cc2)CC1 (10 µM) | 0 | 0 | 0 | 0 | 2 | 0 | 1 | 0 | 0 | 0 |
| CC(C)(CCCCCC(O)CCCCCC(C)(C)C(=O)O)C(=O)O [Bempedoic acid] (10 µM) | 0 | 0 | 0 | 0 | 0 | 0 | 0 | 0 | 0 | 0 |
| CS[C@@]1(C(=O)Nc2ccc3[nH]nc(-c4ccc(OC(C)C)nc4)c3c2)CCN(CC(=O)N2CC=C(c3ccc(-c4ncn(C)n4)cc3)CC2)C1 (2.5 µM) | 0 | 0 | 0 | 0 | 0 | 0 | 0 | 0 | 0 | 0 |
| CC/C(=C(\c1ccccc1)c1ccc(OCCNC)cc1)c1ccccc1 [N-Desmethyltamoxifen (hydrochloride)] (2.5 µM) | 0 | 0 | 0 | 0 | 0 | 0 | 0 | 0 | 0 | 0 |

Some of the entries above, set out differently:
Structure (SMILES) | number of time points (PRKCA) | number of time points (PTK2) | number of time points (PTK2B) | number of time points (RAF1) | number of time points [1] | number of time points (RET) | number of time points [2] | number of time points (RIOK1) | number of time points (RIPK1) | number of time points (RIPK2)
COc1cc(N2CCC(O)CC2)ccc1Nc1nc(Nc2ccccc2S(=O)(=O)C(C)C)c2[nH]cnc2n1 (10 µM) | 0 | 0 | 0 | 0 | 0 | 0 | 0 | 0 | 0 | 0
Nc1nc(Nc2ccc3c(c2)CC[C@@H](N2CCCC2)CC3)nn1-c1cc2c(nn1)-c1ccccc1CCC2 [Bemcentinib] (2.5 µM) | 0 | 0 | 0 | 0 | 0 | 0 | 0 | 0 | 0 | 0
O=C1C=CC2=C3c4cc(O)c(O)cc4CC3(O)COC2=C1O (stereo not given) [Hematein] (10 µM) | 0 | 0 | 0 | 0 | 0 | 0 | 0 | 0 | 0 | 0
COc1ccc(Br)c(C=O)c1O [6-Bromo-2-hydroxy-3-methoxybenzaldehyde] (10 µM) | 0 | 0 | 0 | 0 | 0 | 0 | 0 | 0 | 0 | 0
O=C1Cc2ccccc2N1 [Oxindole] (10 µM) | 0 | 0 | 0 | 0 | 0 | 0 | 0 | 0 | 0 | 0
COc1cc(Nc2ccnc3ccc(Br)cc23)cc(OC)c1OC (2.5 µM) | 0 | 0 | 0 | 1 | 0 | 0 | 0 | 1 | 0 | 0
CC(=O)O/N=C1/C(c2c(O)[nH]c3cc(Br)ccc23)=Nc2ccccc21 [BIO-acetoxime] (10 µM) | 0 | 0 | 0 | 0 | 0 | 0 | 0 | 0 | 0 | 0
O=C(O)c1c[nH]c2cc(Cl)c(-c3ccc(C4(O)CCC4)cc3)cc12 (10 µM) | 0 | 0 | 0 | 0 | 0 | 0 | 0 | 0 | 0 | 0
CN1CCC(Nc2ccc(C(=O)Nc3cc(-c4ccc5c(c4)OCO5)[nH]n3)cc2)CC1 (10 µM) | 0 | 0 | 0 | 0 | 2 | 0 | 1 | 0 | 0 | 0
CC/C(=C(\c1ccccc1)c1ccc(OCCNC)cc1)c1ccccc1 [N-Desmethyltamoxifen (hydrochloride)] (2.5 µM) | 0 | 0 | 0 | 0 | 0 | 0 | 0 | 0 | 0 | 0
